Laboratory results: publication PMC7347845
These are yes or no findings as the source states them, for the method shown. In cells and extracts the contact can be indirect. Here binding means that the protein was enriched with, or labelled near, the bait; the list need not be complete. Sequences can lack the tags named with a protein.

By UniProt entry, the sequences of proteins in these tests, tags left out.
UniProt Q9NXL9: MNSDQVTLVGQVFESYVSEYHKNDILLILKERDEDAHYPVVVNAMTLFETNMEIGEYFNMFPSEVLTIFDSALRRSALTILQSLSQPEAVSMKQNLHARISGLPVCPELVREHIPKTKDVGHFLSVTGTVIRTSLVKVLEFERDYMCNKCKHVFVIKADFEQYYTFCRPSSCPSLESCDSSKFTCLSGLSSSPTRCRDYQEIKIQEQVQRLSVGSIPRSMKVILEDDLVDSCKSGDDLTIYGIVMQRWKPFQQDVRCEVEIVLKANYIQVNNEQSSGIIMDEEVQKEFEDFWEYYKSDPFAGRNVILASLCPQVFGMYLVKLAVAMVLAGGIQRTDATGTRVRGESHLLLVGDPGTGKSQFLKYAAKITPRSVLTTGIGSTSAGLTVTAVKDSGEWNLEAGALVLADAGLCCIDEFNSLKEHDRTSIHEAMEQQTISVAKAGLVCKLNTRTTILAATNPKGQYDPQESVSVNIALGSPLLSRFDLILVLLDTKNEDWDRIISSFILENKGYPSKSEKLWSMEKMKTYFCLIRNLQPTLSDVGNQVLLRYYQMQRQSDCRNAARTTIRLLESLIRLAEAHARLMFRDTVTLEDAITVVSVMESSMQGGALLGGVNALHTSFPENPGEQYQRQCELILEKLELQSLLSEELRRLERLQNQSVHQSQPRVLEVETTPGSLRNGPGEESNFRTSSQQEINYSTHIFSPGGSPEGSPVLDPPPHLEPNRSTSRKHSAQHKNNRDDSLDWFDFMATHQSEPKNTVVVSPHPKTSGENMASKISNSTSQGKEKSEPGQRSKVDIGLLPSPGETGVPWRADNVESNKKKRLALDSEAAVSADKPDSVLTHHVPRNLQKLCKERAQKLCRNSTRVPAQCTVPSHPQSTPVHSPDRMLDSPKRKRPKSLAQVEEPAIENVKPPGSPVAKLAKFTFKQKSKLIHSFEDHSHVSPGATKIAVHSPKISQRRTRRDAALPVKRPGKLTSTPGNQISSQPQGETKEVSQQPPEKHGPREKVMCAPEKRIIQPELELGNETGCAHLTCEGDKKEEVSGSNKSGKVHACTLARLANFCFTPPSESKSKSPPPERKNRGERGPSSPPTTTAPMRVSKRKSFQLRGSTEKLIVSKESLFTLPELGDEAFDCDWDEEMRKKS

Target: T1, S-Flag-streptavidin binding protein (SFB)-tagged HORMAD1 (human (cDNA from MDAH2774 cells)) (UniProt Q86X24)
T1 sequence: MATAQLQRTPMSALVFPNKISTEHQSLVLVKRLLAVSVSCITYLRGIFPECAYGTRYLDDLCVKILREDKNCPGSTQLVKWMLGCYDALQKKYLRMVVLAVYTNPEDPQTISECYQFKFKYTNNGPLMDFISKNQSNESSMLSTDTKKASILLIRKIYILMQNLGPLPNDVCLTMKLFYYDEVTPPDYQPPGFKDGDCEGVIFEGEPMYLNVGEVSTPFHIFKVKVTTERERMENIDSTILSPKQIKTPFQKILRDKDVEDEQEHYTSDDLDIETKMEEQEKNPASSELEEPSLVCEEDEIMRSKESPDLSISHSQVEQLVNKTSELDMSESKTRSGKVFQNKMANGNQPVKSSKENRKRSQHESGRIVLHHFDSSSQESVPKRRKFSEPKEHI
Assay: affinity purification with mass spectrometry; tandem affinity purification of SFB-HORMAD1 from stably expressing 293T cells: lysis in NETN300, streptavidin-conjugated beads 4 °C 2 h, biotin elution, S-protein agarose beads, washes in NETN100; eluate analysed by mass spectrometry

binding: binds
Substance: MCM9 (endogenous, 293T cells) (from UniProt Q9NXL9 1-1143)
